The chains are these.
T1: human CD11a (human) (UniProt P20701)
T1 sequence (looked up): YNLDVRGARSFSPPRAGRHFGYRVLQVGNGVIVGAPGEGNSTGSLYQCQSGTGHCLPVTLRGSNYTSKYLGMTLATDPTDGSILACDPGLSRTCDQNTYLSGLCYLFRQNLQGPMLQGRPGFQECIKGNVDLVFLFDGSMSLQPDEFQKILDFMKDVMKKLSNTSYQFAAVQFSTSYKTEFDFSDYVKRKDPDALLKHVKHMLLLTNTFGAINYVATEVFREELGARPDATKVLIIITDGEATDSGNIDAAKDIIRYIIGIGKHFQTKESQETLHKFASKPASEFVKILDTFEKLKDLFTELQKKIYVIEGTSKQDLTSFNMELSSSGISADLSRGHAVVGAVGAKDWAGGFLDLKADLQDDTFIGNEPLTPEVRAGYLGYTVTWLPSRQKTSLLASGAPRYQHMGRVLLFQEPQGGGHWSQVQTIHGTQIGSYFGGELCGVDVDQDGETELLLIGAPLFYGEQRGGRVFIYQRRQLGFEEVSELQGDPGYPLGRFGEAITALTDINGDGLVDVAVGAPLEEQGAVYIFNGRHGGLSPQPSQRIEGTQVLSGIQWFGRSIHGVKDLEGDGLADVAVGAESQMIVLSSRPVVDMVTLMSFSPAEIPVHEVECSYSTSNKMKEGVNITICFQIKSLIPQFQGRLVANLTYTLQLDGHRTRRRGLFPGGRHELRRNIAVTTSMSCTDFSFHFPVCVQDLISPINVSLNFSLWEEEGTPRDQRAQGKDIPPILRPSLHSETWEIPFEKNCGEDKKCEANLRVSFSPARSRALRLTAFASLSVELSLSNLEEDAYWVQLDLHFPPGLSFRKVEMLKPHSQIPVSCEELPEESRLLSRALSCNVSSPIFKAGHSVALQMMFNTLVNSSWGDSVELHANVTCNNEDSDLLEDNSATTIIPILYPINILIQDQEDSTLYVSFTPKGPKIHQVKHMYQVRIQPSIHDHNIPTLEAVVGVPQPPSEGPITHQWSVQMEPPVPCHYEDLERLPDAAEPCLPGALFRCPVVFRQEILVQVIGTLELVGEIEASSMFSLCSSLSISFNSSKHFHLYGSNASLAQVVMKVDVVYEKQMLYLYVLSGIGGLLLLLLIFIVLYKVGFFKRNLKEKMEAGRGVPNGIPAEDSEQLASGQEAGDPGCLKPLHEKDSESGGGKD

T2: rhesus CD11a (rhesus) (UniProt H9Z8N3)
T2 sequence: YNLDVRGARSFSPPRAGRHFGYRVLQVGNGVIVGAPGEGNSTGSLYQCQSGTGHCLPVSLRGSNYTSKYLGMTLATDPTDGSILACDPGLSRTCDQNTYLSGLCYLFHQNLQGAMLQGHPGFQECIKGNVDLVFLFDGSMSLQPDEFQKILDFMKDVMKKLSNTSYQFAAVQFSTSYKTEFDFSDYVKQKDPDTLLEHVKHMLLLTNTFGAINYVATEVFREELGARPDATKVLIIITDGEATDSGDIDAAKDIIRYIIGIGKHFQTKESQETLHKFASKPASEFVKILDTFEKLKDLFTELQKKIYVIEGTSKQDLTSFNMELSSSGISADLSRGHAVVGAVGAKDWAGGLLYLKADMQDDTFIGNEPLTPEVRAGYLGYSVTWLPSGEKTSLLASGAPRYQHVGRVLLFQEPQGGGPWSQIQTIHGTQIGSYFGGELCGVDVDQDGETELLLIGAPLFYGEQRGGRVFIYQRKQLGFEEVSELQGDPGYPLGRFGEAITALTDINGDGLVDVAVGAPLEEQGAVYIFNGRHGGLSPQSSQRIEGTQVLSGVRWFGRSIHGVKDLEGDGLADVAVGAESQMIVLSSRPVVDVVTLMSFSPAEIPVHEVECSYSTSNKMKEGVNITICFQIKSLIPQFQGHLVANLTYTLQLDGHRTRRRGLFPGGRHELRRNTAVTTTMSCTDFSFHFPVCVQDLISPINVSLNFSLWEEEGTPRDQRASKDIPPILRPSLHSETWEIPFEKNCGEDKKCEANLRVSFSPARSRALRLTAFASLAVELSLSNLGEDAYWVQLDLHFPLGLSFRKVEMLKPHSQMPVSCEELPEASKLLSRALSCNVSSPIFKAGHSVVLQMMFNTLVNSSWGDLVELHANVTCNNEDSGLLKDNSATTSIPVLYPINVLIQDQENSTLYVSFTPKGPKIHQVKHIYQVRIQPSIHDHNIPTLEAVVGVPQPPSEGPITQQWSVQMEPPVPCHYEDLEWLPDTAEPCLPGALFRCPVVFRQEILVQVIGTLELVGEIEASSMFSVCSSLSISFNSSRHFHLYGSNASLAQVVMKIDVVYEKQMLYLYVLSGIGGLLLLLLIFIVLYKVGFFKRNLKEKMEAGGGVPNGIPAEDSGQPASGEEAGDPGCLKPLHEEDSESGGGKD

B1: H3 variant IgG1 (antibody, V domains shown)
VH: EVQLVESGGGLVQPGGSLRLSCAASGYSFTGHWMNWVRQAPGKGLEWVGMIHPSDSETRYNQKFKDRFTISVDKSKNTLYLQMNSLRAEDTAVYYCARGIAFAGTTYFDYWGQGTLVTVSS
VL: DIQMTQSPSSLSASVGDRVTITCRASKTISKYLAWYQQKPGKAPKLLIYSGSTLQSGVPSRFSGSGSGTDFTLTISSLQPEDFATYYCQQHNEYPLTFGQGTKVEIK
B2: rhesus-binding MHM24 (RhIgG1), variant H2C12 (antibody, V domains shown)
VH: B1 VH with H52A, S54A, D55S, E57S, A101Y, A103Y
VL: DIQMTQSPSSLSASVGDRVTITCRASKTISKYLAWYQQKPGKAPKLLIYSGSTLQSGVPSRFSGSGSGTDFTLTISSLQPEDFATYYCQQHNEYPLTFGQGTKVEIKR
B3: L2 variant IgG1 (antibody, V domains shown)
VH: B1 VH with A101Y, A103Y
VL: B2 VL with S50A, S52A, T53A
B4: ThrH100bAla variant IgG1 (antibody, V domains shown)
VH: B1 VH with A101Y, A103Y, T106A
VL: B1 VL
B5: H1 variant IgG1 (antibody, V domains shown)
VH: B1 VH with S28A, T30A, H32A, A101Y, A103Y
VL: B1 VL
B6: AspH54His variant IgG1 (antibody, V domains shown)
VH: B1 VH with D55H, A101Y, A103Y
VL: B1 VL
B7: ThrH100aAla variant IgG1 (antibody, V domains shown)
VH: B1 VH with A101Y, A103Y, T105A
VL: B1 VL
B8: AspH54Arg variant IgG1 (antibody, V domains shown)
VH: B1 VH with D55R, A101Y, A103Y
VL: B1 VL
B9: AspH54Leu variant IgG1 (antibody, V domains shown)
VH: B1 VH with D55L, A101Y, A103Y
VL: B1 VL
B10: SerH28Ala variant IgG1 (antibody, V domains shown)
VH: B1 VH with S28A, A101Y, A103Y
VL: B1 VL
B11: TrpH33Ala variant IgG1 (antibody, V domains shown)
VH: B1 VH with W33A, A101Y, A103Y
VL: B1 VL
B12: L3 variant IgG1 (antibody, V domains shown)
VH: B1 VH with A101Y, A103Y
VL: B2 VL with N92A, E93A, Y94A
B13: HisH32Ala variant IgG1 (antibody, V domains shown)
VH: B1 VH with H32A, A101Y, A103Y
VL: B1 VL
B14: AspH54Glu variant IgG1 (antibody, V domains shown)
VH: B1 VH with D55E, A101Y, A103Y
VL: B1 VL
B15: HisL91Ala variant IgG1 (antibody, V domains shown)
VH: B1 VH with A101Y, A103Y
VL: B2 VL with H91A
B16: TyrL94Ala variant IgG1 (antibody, V domains shown)
VH: B1 VH with A101Y, A103Y
VL: B2 VL with Y94A
B17: TyrH100cAla variant IgG1 (antibody, V domains shown)
VH: B1 VH with A101Y, A103Y, Y107A
VL: B1 VL
B18: AspH54Thr variant IgG1 (antibody, V domains shown)
VH: B1 VH with D55T, A101Y, A103Y
VL: B1 VL
B19: AspH54Met variant IgG1 (antibody, V domains shown)
VH: B1 VH with D55M, A101Y, A103Y
VL: B1 VL

Numbering of substitutions follows the chain as printed. These are yes or no findings as the source states them, for the method shown. Some binding calls cover weakened binding; strength is not graded here. For part of these data: Tags and fused reporters may be left off the sequences shown.

The first experiment concerns the target T1, human CD11a (human). As to the kind of experiment: FACScan, Jurkat cells.
As for B1, the binding result was “no binding (tested: Var.EC50/HuIgG1 EC50 >900)”.

The next experiment addresses T2, rhesus CD11a (rhesus). As to the kind of experiment: saturation binding, rhesus leukocytes.
With B2, the binding result is recorded as “binds”.

The target of the next experiment is T2, rhesus CD11a (rhesus). As to the kind of experiment: binding to rhesus peripheral blood lymphocytes.
For B3, the binding result is listed as “no binding (tested: greater than 10-fold weaker than HuIgG1)”.
With B4, the binding result is listed as “no binding (tested: greater than 10-fold weaker than HuIgG1)”.
With B5, the binding entry is given as “no binding (tested: greater than 10-fold weaker than HuIgG1)”.
On the same count and under the same terms, the same measure for B6: “no binding (tested: Variant EC50/HuIgG1 EC50 >25)”; for B7: “no binding (tested: greater than 10-fold weaker than HuIgG1)”; for B8: “no binding (tested: Variant EC50/HuIgG1 EC50 >25)”.
The same measure, in the same setting: the value for B9 was “no binding (tested: Variant EC50/HuIgG1 EC50 >25)”.
In the case of B10, the binding entry was “no binding (tested: greater than 10-fold weaker than HuIgG1)”.
Still for that read-out and setting: the value for B11 was “no binding (tested: greater than 10-fold weaker than HuIgG1)”; that for B12 was “no binding (tested: greater than 10-fold weaker than HuIgG1)”; that for B13 was “no binding (tested: greater than 10-fold weaker than HuIgG1)”.
On the same count and under the same terms, the value for B1 was “no binding (tested: greater than 10-fold weaker than HuIgG1)”; that for B14 was “no binding (tested: Variant EC50/HuIgG1 EC50 >25)”.
As for B15, the binding entry is “no binding (tested: greater than 10-fold weaker than HuIgG1)”.
For B16, the binding result is listed as “no binding (tested: greater than 10-fold weaker than HuIgG1)”.
The same measure, in the same setting: the same measure for B17: “no binding (tested: greater than 10-fold weaker than HuIgG1)”; for B18: “no binding (tested: Variant EC50/HuIgG1 EC50 >25)”; for B19: “no binding (tested: Variant EC50/HuIgG1 EC50 >25)”.

A further experiment addresses T2, rhesus CD11a (rhesus). Nature of the experiment: saturation binding with and without 1 mg/ml human IgG1.
As for B2, the binding entry is reported as “binds”.

The record behind these values is patent EP1516629B1.
